Changes are numbered by the printed parent chain. These are yes or no findings as the source states them, for the method shown. In cells and extracts the contact can be indirect. Some entries that bind do so weakly or less than the wild type.
How the values were obtained:
mCherry-Cyclin F^S621G = target: T1, mCherry-Cyclin F^S621G (UniProt P41002); experiment: co-immunoprecipitation, western blot
T1 sequence (looked up): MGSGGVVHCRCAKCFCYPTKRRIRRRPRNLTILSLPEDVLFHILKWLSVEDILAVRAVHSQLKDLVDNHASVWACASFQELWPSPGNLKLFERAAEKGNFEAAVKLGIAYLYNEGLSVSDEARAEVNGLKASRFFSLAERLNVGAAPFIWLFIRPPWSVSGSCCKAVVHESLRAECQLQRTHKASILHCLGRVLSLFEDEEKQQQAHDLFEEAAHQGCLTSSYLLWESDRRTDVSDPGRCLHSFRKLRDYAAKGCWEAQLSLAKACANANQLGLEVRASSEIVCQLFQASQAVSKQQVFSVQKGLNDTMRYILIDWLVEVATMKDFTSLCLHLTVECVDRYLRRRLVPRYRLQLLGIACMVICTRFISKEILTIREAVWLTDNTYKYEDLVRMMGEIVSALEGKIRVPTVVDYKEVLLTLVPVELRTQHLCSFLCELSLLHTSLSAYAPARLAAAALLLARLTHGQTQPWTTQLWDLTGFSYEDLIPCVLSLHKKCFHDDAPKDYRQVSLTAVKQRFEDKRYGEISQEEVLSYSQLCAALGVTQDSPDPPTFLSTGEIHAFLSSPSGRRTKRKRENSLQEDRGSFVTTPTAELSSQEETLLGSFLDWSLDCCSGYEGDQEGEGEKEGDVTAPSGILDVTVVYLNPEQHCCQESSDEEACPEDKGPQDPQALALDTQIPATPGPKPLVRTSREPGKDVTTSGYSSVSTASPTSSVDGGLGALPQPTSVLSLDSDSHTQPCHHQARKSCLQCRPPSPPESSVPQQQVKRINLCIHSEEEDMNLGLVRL

Amino acid sequences for entries named in this document (tags omitted).
UniProt Q921F2: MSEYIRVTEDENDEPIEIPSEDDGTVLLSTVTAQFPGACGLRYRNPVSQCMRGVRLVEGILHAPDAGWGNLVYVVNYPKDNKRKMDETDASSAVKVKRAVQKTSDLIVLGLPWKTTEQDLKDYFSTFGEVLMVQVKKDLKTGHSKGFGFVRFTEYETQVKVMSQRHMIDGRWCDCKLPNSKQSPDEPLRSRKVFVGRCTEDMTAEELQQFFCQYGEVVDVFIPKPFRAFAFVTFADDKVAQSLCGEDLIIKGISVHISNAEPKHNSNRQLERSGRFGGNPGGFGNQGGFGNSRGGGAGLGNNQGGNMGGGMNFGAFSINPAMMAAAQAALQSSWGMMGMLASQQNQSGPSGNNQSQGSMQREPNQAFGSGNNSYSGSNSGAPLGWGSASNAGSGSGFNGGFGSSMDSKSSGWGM

mCherry-Cyclin F^WT [1] = target: T2, mCherry-Cyclin F^WT (UniProt P41002); experiment: co-immunoprecipitation, western blot
T2 sequence (looked up): T1 sequence (looked up) with G621S

mCherry-Cyclin F^WT [2] = target: T2, mCherry-Cyclin F^WT; experiment: reverse co-immunoprecipitation in Neuro2a cells

Measured: binding

endogenous TDP-43 in Neuro2A cells (from UniProt Q921F2 1-414)
binds: all assays above
